{"source": "patent US20240366471A1", "about": "“MULTIDOSE ANTIBODY DRUG PRODUCTS USING PHENOL OR BENZYL ALCOHOL” (Regeneron Pharmaceuticals, Inc., priority 2023, published 2024)", "assay": "Compatibility of preservatives with mAb formulations", "assay_type": "physicochemical", "settings": "preservative in mAb formulations; incompatibility seen as turbidity", "note": "Entries after “also recorded” stand apart in the source; their conditions may differ. At least one structure is not confirmed: it was looked up by name or label, or the drawing left a doubt."}
{"smiles": "CC(C)(O)C(Cl)(Cl)Cl", "note": "[chlorobutanol]", "values": [{"measurement": "compatibility with the mAb formulations", "result": "incompatible; also recorded: not compatible"}]}
